## Screening data, single-dose tests

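Assay of Toxoplasma gondii numbers, read through their beta-galactosidase reporter with a colour substrate. Tested at 50 µM. The record gives no direction; the compounds picked for IC50 retests had high values, so higher reads as fewer parasites. Size under these conditions: about 18,000 compounds, about 170 of them at 50% or above in at least one test.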

Each number is a percent effect as filed.
The controls that fix the scale are not given in the record; negative values are as filed.
This is an unselected part of the compounds tested.

| structure | effect |
|---|---|
| `NC1CCN(CCCc2ccccc2)C1=O` (centres undefined) | 0.08039 |
| `CCc1nn(C)c(CC)c1S(=O)(=O)N1CCC(N)C1` (centres undefined) | 19.85 |
| `COCCN1CCN(C(=O)C(C)C)CC1` | -6.979 |
| `COc1cc(CN)ccn1` | -2.804 |
| `CC(=O)Nc1cnn(CC2CCCO2)c1` (centres undefined) | 14.83 |
| `Cc1cncc(CN2CCCC(CNS(N)(=O)=O)C2)c1` (centres undefined) | -10.98 |
| `O=C(CCc1nc2ccccc2s1)NC1=NCCS1` | 4.06 |
| `Cc1cc(NC2CCN(C)C2=O)nc2ccccc12` (centres undefined) | 1.839 |
| `NCc1ccc(N)nc1` | -3.539 |
| `NC1CC(=O)N(c2c(F)cccc2F)C1` (centres undefined) | 6.949 |
| `c1ncn(C2CCCCC2)c1CN1CCNCC1` | -6.117 |
| `CN1CCN(S(C)(=O)=O)c2ccccc2C1` | 1.548 |
| `CSc1cccc(N(C)C(=O)C(N)c2ccccc2)c1` (centres undefined) | 16 |
| `Cc1ccc(NS(=O)(=O)N(C)C)c(C)c1` | 8.805 |
| `CN1C(=O)Cc2cc(S(=O)(=O)N3CCCCC3)ccc21` | 10.13 |
| `CC(O)CN(C(=O)Cc1ccc(F)c(F)c1)C(C)C` (centres undefined) | -4.107 |
| `Cn1ncc2c(N)ncnc21` | 23.64 |
| `COc1cccc(C(=O)N(C)C2CCN(C)CC2)c1` | 1.822 |
| `O=C(CC1CCCC1)NCCN1C(=O)CCC1=O` | -1.736 |
| `O=C(CCCN1CCCCC1)NCCn1cccc1` | -5.718 |
| `COc1ccc(OC)c(NC(=O)c2ccccn2)c1` | -4.097 |
| `Cc1ccc(CS(=O)(=O)N2CCC(C(N)=O)CC2)cc1` | -13.44 |
| `CCCc1nnc(NCc2ccc(C)cn2)o1` | 7.397 |
| `CC(=O)NCCNC(=O)c1ccncc1` | 5.832 |
| `CN(C)S(=O)(=O)c1cccc(CN2CCCC(O)C2)c1` (centres undefined) | 0.159 |
| `CC(CN)S(N)(=O)=O` (centres undefined) | 19.49 |
| `COc1ccc(OCCN2CCC(C(N)=O)CC2)cc1` | 5.82 |
| `CC(CN)c1ccc(S(C)(=O)=O)cc1` (centres undefined) | -4.096 |
| `N#CC(N)C1CCOCC1` (centres undefined) | 3.873 |
| `CS(=O)(=O)CCNS(=O)(=O)c1c(Cl)cccc1Cl` | 0.5091 |
| `CN(C)S(=O)(=O)CCCN1CCCCC1c1nccs1` (centres undefined) | -13.11 |
| `CNCC1CN(Cc2ccccc2)CCO1` (centres undefined) | 24.83 |
| `O=C1NC2(CCOCC2)Nc2ccc(Cl)cc21` | 7.067 |
| `CC(O)c1c(F)cccc1OCCN(C)C` (centres undefined) | -3.57 |
| `CCc1n[nH]c(SCC(=O)NCCSc2cnn[nH]2)n1` | 2.822 |
| `Cn1ncc(Cl)c1C(=O)N1CCOCC1` | -11.73 |
| `CC(C)CNC(=O)CNC(=O)c1ccc(Br)c(O)c1` | 4.556 |
| `NC(=O)c1cnc(NC(=O)CCC2CCCO2)s1` (centres undefined) | -15.99 |
| `COc1cc(CCC(=O)Nc2nc[nH]n2)on1` | 2.162 |
| `CC(=O)Nc1cccc(OCCNc2ccccn2)c1` | -0.6142 |
| `N#Cc1ccnc(N2CCCC(O)C2)c1` (centres undefined) | 2.574 |
| `Cc1occc1C(=O)N(C)Cc1cnn(C)c1` | 3.658 |
| `O=C(Nc1nc(C2CC2)cs1)C1CC12CCNCC2` (centres undefined) | -11.35 |
| `CN1CCN(c2cccc(C#N)n2)CC1` | 4.938 |
| `N#Cc1ccc(C(=O)NCCCN2CCCCC2)cc1` | -3.01 |
| `NC(=O)C(SCCN1CCOCC1)c1ccccc1` (centres undefined) | -12.98 |
| `CN(Cc1ccccc1O)C(=O)C1CCOCC1` | -4.438 |

Once more, the final 5:

| structure | effect |
|---|---|
| `O=C(Nc1nc(C2CC2)cs1)C1CC12CCNCC2` (centres undefined) | -11.35 |
| `CN1CCN(c2cccc(C#N)n2)CC1` | 4.938 |
| `N#Cc1ccc(C(=O)NCCCN2CCCCC2)cc1` | -3.01 |
| `NC(=O)C(SCCN1CCOCC1)c1ccccc1` (centres undefined) | -12.98 |
| `CN(Cc1ccccc1O)C(=O)C1CCOCC1` | -4.438 |

Measurements from “University of Dundee, Small-Polar-MMV Screening Library” (2021), ChEMBL document CHEMBL3988442.